Experimental data reported in the supplement of paper PMC3334620.
In all, about 33,000 sequences were measured (“E-score (-0.5 to 0.5)”: median about -0.0059, highest 2% from about 0.26 on). Some of the results follow.

These sequences were tested against T1, Cin5 (UniProt P40917) (assay: PBM E-score (8-mer binding enrichment) (E-score (-0.5 to 0.5)); higher = stronger / more preferred TF binding). Details: protein concentration: 100 nM; construct: GST-full length.
T1 sequence: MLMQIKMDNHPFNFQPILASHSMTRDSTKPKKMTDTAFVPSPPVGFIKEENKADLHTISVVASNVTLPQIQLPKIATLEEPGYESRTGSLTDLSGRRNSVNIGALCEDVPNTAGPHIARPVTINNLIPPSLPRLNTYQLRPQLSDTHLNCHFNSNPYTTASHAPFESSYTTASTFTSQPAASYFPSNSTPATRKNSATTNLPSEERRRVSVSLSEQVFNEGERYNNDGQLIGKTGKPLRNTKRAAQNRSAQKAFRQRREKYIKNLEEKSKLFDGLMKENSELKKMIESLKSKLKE
Outline: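 E-scores (a modified Wilcoxon-Mann-Whitney statistic) were assigned by the Universal PBM Analysis Suite to every ungapped eight-base word pooled with its reverse complement. The input came from universal all-10-mer Agilent arrays made double-stranded by primer extension and probed with GST-tagged yeast transcription factors at about 100-200 nM. Fluorescent anti-GST detected bound protein, and masliner normalised the scans.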

In order of rising “PBM E-score” value:
1. GCCCTCTA  -0.266
2. GTAGAGAC  -0.242
3. AGGAGCGA  -0.233
4. CATGGAGG  -0.227
5. ACGCATCC  -0.224
6. CGAGTGCC  -0.212
7. CCTGGGCG  -0.2
8. CCGGGTCA  -0.198
9. CCTACCAG  -0.198
10. AGGGACCG  -0.198
11. ACGCTCAG  -0.192
12. GGTCGGCA  -0.184
13. CTAGCGCC  -0.183
14. CTCTCGAC  -0.178
15. GCCTGGTA  -0.165
16. GGAGCTCC  -0.164
17. GAATCCCC  -0.16
18. ATGGCCGC  -0.158
19. GCTGTTAC  -0.151
20. GGTCTAAC  -0.151
21. AGTGCGCC  -0.144
22. ACCGATGA  -0.138
23. CGTTTGGC  -0.136
24. CAGCGTGG  -0.127
25. AGGTTGTG  -0.126
26. CACTGTGA  -0.124
27. AAGAGGCT  -0.114
28. CCTAGCTA  -0.104
29. CGATGACG  -0.102
30. CTCTTGAA  -0.0838
31. GCAGGGCA  -0.0716
32. CGTTCATA  -0.0697
33. CGGTTAAG  -0.0684
34. CCGATCTC  -0.0669
35. GCCAGTCA  -0.0633
36. CAACGATC  -0.0562
37. TAGTGGCA  -0.0513
38. AACCCCTT  -0.0504
39. ATGACTAG  -0.048
40. ACTCAGTC  -0.0445
41. AAAGGCAG  -0.0351
42. GCATACTA  -0.031
43. CACTACCA  -0.0289
44. GCAAGAGC  -0.0238
45. CAACCTGA  -0.023
46. TACGCAAA  -0.01
47. TCCCTAGA  -0.00978
48. CGACGGGA  -0.00694
49. AGATATCG  -0.00301
50. ACGGAAAC  -0.00025
51. CATATACG  0.00122
52. ACCTGGCC  0.00508
53. CGGCTATA  0.00727
54. AAGGACCT  0.0084
55. CAGAAAGA  0.0132
56. AGTCGAGA  0.0157
57. CCTTTTGA  0.0204
58. ACCACACG  0.0321
59. CGACTAAC  0.0331
60. CGGTACAG  0.034
61. ACTTGAAA  0.0376
62. CACATTTA  0.039
63. ATCCGGCA  0.0463
64. ACCGTTAA  0.05
65. CACGTAGA  0.0501
66. GCGATTCA  0.0512
67. TCAACGGA  0.0565
68. AACAAGGA  0.0607
69. AGTGAATC  0.0638
70. CAGTTACA  0.0652
71. AATTAGAC  0.0847
72. GATCGCGC  0.0898
73. AGCTGATC  0.0915
74. ATTGGTCA  0.0917
75. ATACAACC  0.0923
76. CACGATAA  0.108
77. ACATCTTC  0.108
78. CACATCCG  0.116
79. GAGTTTGA  0.117
80. ATTTATCG  0.119
81. CATGCCGC  0.122
82. AGCATAAT  0.123
83. AAGTGTGC  0.131
84. AAAACATG  0.133
85. ATAGAACG  0.139
86. AGTAGTAA  0.142
87. ATTTGGTC  0.16
88. AACCAACT  0.162
89. ATCATCGA  0.165
90. TGAAATCA  0.176
91. GAACCCCA  0.178
92. CCCATTCA  0.214
93. ACATAACC  0.235
94. TCGATTAA  0.267
